No constants are given. Whether binding was seen depends on the method and setting. In cells and extracts the contact can be indirect. Some binding calls cover weakened binding; strength is not graded here. For some of these results: Tags and fused reporters may be left off the sequences shown.
What was measured:
Assay in all cases: co-IP
[1] = target: T1, DDX50-HA (pCW57 MEF cell line) (UniProt Q99MJ9)
T1 sequence: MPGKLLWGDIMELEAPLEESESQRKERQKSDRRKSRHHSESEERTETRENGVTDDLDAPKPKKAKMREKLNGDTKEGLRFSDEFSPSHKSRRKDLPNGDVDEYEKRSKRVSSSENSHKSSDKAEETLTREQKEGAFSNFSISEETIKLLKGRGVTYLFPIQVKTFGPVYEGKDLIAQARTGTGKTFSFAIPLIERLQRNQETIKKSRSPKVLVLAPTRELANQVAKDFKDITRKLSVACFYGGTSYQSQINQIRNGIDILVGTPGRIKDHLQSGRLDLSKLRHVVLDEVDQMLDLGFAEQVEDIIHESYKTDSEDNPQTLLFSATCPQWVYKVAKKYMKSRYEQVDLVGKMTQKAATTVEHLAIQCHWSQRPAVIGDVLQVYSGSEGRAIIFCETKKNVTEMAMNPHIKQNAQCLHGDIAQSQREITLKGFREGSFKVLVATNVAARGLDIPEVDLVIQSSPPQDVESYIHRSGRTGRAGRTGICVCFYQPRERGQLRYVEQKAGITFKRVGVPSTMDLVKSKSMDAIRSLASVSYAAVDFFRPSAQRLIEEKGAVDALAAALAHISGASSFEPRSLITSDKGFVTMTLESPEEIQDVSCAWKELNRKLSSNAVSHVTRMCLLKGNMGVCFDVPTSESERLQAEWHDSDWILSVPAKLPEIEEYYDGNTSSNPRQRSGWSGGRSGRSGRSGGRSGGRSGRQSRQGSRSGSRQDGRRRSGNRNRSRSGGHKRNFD

By UniProt entry, the sequences of proteins in these tests, tags left out.
UniProt Q8IUC6: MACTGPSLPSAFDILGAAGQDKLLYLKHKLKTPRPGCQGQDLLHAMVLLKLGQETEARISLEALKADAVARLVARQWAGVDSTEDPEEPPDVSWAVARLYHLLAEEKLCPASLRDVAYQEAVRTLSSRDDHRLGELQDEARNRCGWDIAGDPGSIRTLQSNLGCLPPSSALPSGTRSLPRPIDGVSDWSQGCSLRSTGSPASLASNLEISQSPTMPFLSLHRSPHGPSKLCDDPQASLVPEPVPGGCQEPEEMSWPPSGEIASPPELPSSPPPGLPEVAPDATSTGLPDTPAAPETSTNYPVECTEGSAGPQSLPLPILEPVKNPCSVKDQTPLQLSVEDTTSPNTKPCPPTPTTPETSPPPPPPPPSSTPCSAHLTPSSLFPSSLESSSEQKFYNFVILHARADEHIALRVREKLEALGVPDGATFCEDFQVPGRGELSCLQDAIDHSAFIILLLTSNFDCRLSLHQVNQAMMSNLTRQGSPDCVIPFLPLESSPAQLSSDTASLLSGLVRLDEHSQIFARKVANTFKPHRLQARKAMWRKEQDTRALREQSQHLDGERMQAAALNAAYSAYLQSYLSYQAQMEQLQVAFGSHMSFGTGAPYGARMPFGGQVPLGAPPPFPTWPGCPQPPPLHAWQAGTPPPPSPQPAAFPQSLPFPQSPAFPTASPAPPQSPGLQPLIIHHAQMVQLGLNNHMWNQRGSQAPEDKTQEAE

TRIF-cTAP (in HeLa) = TRIF-cTAP (in HeLa) (UniProt Q8IUC6)
[2] = target: T2, hDDX50-HA (in HeLa) (human) (UniProt Q9BQ39)
T2 sequence: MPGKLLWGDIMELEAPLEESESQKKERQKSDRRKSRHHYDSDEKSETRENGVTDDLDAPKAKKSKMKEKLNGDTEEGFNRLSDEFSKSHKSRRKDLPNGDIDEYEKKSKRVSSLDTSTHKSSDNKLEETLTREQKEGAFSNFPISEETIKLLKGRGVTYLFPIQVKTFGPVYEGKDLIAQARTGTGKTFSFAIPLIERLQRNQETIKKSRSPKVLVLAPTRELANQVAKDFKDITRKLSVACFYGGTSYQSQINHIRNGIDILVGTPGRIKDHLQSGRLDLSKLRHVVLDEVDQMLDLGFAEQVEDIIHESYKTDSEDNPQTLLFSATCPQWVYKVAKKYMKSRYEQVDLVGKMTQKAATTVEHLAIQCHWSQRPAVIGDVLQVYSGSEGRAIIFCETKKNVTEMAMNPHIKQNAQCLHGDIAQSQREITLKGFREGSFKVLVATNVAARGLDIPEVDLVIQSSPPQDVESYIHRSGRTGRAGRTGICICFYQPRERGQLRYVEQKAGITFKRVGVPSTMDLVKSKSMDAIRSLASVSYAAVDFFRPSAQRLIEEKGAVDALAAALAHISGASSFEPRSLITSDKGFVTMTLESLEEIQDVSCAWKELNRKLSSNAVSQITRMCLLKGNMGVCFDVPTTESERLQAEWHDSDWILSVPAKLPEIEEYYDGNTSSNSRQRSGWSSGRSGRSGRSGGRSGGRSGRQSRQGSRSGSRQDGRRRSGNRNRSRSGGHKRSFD

TRIF-cTAP (in HEK293T) = TRIF-cTAP (in HEK293T) (UniProt Q8IUC6)

## TRIF-cTAP (in MEFs) (from UniProt Q8IUC6 1-712)
[1]
  binding: binds

B1: hDDX50-HA (in HeLa) (protein, UniProt Q9BQ39 1-737)
chain: T2 sequence
TRIF-cTAP (in HeLa)
  binding: binds

B2: endogenous DDX1 (HeLa) (protein, UniProt Q92499 1-740)
chain: MAAFSEMGVMPEIAQAVEEMDWLLPTDIQAESIPLILGGGDVLMAAETGSGKTGAFSIPVIQIVYETLKDQQEGKKGKTTIKTGASVLNKWQMNPYDRGSAFAIGSDGLCCQSREVKEWHGCRATKGLMKGKHYYEVSCHDQGLCRVGWSTMQASLDLGTDKFGFGFGGTGKKSHNKQFDNYGEEFTMHDTIGCYLDIDKGHVKFSKNGKDLGLAFEIPPHMKNQALFPACVLKNAELKFNFGEEEFKFPPKDGFVALSKAPDGYIVKSQHSGNAQVTQTKFLPNAPKALIVEPSRELAEQTLNNIKQFKKYIDNPKLRELLIIGGVAARDQLSVLENGVDIVVGTPGRLDDLVSTGKLNLSQVRFLVLDEADGLLSQGYSDFINRMHNQIPQVTSDGKRLQVIVCSATLHSFDVKKLSEKIMHFPTWVDLKGEDSVPDTVHHVVVPVNPKTDRLWERLGKSHIRTDDVHAKDNTRPGANSPEMWSEAIKILKGEYAVRAIKEHKMDQAIIFCRTKIDCDNLEQYFIQQGGGPDKKGHQFSCVCLHGDRKPHERKQNLERFKKGDVRFLICTDVAARGIDIHGVPYVINVTLPDEKQNYVHRIGRVGRAERMGLAISLVATEKEKVWYHVCSSRGKGCYNTRLKEDGGCTIWYNEMQLLSEIEEHLNCTISQVEPDIKVPVDEFDGKVTYGQKRAAGGGSYKGHVDILAPTVQELAALEKEAQTSFLHLGYLPNQLFRTF
[2]
  binding: binds weakly

B3: endogenous DDX1 (HEK293T) (protein, UniProt Q92499 1-740)
chain: B2 chain
TRIF-cTAP (in HEK293T)
  binding: binds
